Experimental findings from paper PMC12120719, “Targeting Senescence with Apigenin Improves Chemotherapeutic Efficacy and Ameliorates Age‐Related Conditions in Mice” (Advanced Science, 2025) are described below.

The chains behind the UniProt entries cited, without tags or fusion partners.
UniProt Q13315: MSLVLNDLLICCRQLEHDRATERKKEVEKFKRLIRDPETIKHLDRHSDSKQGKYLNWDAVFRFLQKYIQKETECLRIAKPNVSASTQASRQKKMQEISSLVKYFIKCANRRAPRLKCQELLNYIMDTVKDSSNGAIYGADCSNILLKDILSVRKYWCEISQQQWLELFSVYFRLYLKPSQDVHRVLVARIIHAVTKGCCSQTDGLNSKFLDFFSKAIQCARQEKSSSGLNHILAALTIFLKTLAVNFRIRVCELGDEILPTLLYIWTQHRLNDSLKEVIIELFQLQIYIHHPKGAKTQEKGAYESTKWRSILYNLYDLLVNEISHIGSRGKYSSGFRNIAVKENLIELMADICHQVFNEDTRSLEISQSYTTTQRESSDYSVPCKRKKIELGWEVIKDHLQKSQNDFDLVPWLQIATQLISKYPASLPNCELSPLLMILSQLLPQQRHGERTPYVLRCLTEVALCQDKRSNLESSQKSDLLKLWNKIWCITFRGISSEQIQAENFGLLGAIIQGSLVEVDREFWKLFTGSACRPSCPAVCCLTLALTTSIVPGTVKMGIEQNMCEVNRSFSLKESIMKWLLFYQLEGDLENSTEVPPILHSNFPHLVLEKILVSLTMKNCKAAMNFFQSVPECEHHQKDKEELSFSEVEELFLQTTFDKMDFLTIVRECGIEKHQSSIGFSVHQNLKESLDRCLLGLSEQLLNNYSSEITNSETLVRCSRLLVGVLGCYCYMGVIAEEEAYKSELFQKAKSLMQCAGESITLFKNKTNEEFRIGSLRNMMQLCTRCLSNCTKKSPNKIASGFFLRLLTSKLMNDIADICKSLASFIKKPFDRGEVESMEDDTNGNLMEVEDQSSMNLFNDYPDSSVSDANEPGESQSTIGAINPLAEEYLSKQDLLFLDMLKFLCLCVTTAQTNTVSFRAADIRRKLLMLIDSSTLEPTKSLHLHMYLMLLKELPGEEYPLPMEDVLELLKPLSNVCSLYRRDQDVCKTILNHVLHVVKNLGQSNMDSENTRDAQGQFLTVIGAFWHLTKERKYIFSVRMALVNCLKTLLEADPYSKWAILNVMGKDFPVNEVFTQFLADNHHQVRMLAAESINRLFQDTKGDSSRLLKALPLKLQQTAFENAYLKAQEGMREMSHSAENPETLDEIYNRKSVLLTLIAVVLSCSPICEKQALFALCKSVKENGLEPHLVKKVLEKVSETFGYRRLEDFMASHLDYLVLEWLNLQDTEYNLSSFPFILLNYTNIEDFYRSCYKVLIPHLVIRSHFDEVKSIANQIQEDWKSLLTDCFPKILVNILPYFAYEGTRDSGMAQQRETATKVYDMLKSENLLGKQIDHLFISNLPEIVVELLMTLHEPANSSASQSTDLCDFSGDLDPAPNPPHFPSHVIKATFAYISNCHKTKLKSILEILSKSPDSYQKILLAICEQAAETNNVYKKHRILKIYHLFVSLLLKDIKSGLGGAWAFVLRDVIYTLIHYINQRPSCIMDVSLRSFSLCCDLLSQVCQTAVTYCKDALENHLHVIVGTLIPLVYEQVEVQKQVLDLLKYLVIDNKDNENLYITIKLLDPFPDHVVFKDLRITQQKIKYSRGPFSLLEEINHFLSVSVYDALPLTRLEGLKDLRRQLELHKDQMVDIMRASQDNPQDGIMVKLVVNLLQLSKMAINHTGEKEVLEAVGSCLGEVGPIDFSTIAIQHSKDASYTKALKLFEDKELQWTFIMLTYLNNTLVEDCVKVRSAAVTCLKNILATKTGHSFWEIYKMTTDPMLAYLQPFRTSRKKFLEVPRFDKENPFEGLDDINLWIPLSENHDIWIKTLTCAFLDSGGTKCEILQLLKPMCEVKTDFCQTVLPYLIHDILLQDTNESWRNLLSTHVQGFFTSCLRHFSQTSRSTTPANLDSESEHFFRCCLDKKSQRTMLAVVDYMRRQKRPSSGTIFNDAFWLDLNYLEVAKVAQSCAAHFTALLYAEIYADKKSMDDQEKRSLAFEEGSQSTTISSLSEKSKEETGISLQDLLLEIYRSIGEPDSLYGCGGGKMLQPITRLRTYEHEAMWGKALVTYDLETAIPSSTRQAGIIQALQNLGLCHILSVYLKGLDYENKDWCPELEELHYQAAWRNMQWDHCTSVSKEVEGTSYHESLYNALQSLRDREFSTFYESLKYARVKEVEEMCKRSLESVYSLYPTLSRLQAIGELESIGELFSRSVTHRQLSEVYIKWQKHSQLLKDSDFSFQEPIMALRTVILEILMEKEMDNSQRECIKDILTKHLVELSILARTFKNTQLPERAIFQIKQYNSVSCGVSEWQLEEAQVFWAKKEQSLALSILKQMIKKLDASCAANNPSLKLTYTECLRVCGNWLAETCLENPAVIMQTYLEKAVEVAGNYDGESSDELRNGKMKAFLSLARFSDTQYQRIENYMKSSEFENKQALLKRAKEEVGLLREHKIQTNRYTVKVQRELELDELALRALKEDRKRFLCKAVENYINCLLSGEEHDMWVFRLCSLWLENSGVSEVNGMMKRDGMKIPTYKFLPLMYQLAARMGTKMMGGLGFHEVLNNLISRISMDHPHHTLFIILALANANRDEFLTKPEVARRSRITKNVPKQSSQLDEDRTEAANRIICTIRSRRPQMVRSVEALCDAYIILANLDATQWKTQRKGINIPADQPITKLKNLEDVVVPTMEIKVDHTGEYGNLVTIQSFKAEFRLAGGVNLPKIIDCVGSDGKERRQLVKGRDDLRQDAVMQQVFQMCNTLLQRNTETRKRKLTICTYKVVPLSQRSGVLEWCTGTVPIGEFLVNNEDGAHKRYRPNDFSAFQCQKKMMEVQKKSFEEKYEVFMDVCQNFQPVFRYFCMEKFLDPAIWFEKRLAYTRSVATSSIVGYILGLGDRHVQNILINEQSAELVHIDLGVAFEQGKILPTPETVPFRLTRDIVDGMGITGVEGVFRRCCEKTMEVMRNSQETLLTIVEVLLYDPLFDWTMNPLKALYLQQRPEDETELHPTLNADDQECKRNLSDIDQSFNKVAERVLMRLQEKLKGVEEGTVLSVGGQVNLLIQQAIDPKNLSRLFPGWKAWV
UniProt P06748: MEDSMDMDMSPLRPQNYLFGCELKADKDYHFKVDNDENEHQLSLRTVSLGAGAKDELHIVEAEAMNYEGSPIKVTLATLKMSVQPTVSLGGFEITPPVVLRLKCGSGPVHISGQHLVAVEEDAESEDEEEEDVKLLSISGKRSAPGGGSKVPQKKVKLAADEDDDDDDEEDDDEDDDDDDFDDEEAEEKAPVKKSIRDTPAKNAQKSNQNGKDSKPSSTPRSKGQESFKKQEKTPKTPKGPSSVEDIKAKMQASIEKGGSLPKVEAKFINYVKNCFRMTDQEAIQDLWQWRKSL
UniProt P11142: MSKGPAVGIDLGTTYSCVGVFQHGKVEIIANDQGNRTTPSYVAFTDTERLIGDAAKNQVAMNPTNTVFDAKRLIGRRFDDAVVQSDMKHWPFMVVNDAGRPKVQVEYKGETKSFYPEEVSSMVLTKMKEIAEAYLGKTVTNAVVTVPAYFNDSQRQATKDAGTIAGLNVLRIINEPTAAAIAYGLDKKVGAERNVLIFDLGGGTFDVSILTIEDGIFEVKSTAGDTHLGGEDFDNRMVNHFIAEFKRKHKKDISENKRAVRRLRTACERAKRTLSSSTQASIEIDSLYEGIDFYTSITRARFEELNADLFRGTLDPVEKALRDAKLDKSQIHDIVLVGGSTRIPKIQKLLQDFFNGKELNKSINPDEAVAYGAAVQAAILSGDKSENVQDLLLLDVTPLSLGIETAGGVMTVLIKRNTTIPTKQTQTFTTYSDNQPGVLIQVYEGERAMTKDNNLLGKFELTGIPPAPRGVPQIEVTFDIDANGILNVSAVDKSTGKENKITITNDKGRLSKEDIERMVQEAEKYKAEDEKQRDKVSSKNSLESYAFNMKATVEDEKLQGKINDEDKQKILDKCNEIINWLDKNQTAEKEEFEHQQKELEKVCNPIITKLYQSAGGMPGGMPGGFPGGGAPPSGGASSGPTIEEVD

Results are given in words; binding and its absence hold for the method and conditions named. Binding seen in cells or lysates may run through a third protein. Some results given as binding are weak or reduced against the parent protein; the word gives no strength.

The target in this assay is phosphorylated ATM (human (endogenous in PSC27)) (UniProt Q13315). Briefly: co-IP; IP with anti-p-ATM (IgG as control) from lysates of PSC27 cells treated with BLEO (50 µg/mL, 12 h), immunoblot; also done with cells treated with the HSPA8 inhibitor VER155008 (interaction with HSPA8 markedly reduced). In general terms: In western blotting, separated proteins are transferred to a membrane and probed.

For the substance NPM1 (from UniProt P06748 1-294), the binding entry is on record as “binds”.
As to HSPA8 (from UniProt P11142 1-646), the binding entry was “binds”.
